Assay results: the supplement of paper PMC10338343
± gives the standard deviation. The list shows a part of the results. Many entries were measured with a wide error.

test system: EfPiwi piRISC loaded with L1MC piRNA (26 nt); test: pre-steady-state target cleavage rate (min^-1); guide: L1MC piRNA 5'p-UAACUAAAUACUAUGCAAGCUGUAGG; MIWI and MILI are mouse PIWI proteins and EfPiwi is from a freshwater sponge; tags in brackets are library labels; higher = faster piRNA-guided slicing of the target; settings: auxiliary factor: 500 nM Ephydatia muelleri Gtsf1
Procedure, shortened: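 Cleave-'n-Seq: a transcribed, DNA-blocked target RNA library (0.1 nM) was mixed with 1 nM active affinity-purified piRISC carrying one synthetic guide, with or without 500 nM GTSF1 partner protein, in HEPES–potassium acetate buffer at 33 °C for 0–8 or 0–960 min. Uncleaved targets were sequenced and normalised to depth and to weakly complementary targets. Three trials were pooled, and k3 was capped at 0.0001 min^-1. The pre-steady-state cleavage rate came from a burst-and-steady-state fit.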

Row | Sequence | pre-steady-state target cleavage rate
1 | UCCUGGAUGAGGAUGCAUAGUAUUUACAAA | 0.000698 ± 0.0043
2 | UCCUGGAACAGCUUGGAUAGUAUUUACAAA | 0.00254 ± 0.0019
3 | UCCUGGAUGUCCUUGCAUAGAUAUUAGUAA | 0.00116 ± 0.0064
4 | UCCUGGUACAGCUUGCAUAGUAUUUAGCUA | 0.00142 ± 0.0042
5 | UCCUCCUACAGCUAGCAUAGUAUUUAGAAA | 0.00378 ± 0.0016
6 | UCCUGCUACAGCUUGCAUACUAUUUAGAAA | 0.00298 ± 0.0021
7 | UCCUGGAUGUGCUUGCAUAGUAUAUAGAAA | 0.00066 ± 0.0052
8 | UCCUGGUACACGUUGCAUAGUAUUUAGAAA | 0.00151 ± 0.003
9 | UCCUGGAUGAGCUUGCAUAGUAUAAAGAAA | 0.000907 ± 0.0051
10 | UCCUGGAACAGCUUGGUAAGUAUUUACAAA | 0.00184 ± 0.007
11 | UCCUGGAUGAGCUACCAUAGUAUUUAGAAA | 0.00151 ± 0.0029
12 | UCCUGGAUGAGCUAGCAUAGUAUUUACAAA | 0.00212 ± 0.0034
13 | UCCUGGAUGUCCUUGCAUAGUAUUUAGUCUA | 0.00301 ± 0.0024
14 | UCCUGGAACAGCUUGCAUACAUUUUAGUAA | 0.000465 ± 0.0064
15 | UCCUGGAUGUCGUUGCAAACUAUUUAGUUA | < 0.0001

same assay, conditions: auxiliary factor: none (no Gtsf1)

Row | Sequence | pre-steady-state target cleavage rate
16 | UCCUGGUACAGCUACGAUAGUAUUUUCAAA | 0.000188 ± 0.038
17 | UCCUGGAACAGCUUGCAUACAUUUUAGUUA | 0.000158 ± 0.038
18 | UCCUGGAUGAGCUUGCAUAGUAUUUAUUA | 0.000638 ± 0.016
19 | UCCUGGUACAGCUUGCUAUGUAUUUUCAAA | 0.000333 ± 0.021
20 | UCCUGGAACAGGUUGCAUAGUAUUUAGAAA | 0.000402 ± 0.016
21 | UCCUGGAUGUCGAUGCAUAGUUAUUUAGUUA | 0.000335 ± 0.024
22 | UCCUGGAUGAGCAACCAUAGUAUUUAGAAA | 0.000292 ± 0.035
23 | UCCUGGUACAGCUUGCAUAGUUAAAUCAAA [g10:g24:cont:t1A] | 0.000114 ± 0.058
24 | UCCUGGAUGUGCUUGCAUACUAUUUAGAAA | 0.000259 ± 0.027
25 | UCCUGGUACAGCUUGCAUAGUAUAUUCAAA | 0.000817 ± 0.011
26 | UCCUGCUACAGCUUGCAUACAAUUUAGUAA | 0.000395 ± 0.017
27 | UCCUGGAACAGCUAGCAUAGUAUUUACAAA | 0.000212 ± 0.036
28 | UCCUCCUACAGCUUGGUAAGUAUUUUCAAA | 0.000336 ± 0.013
29 | UCCUGGAUCAGCUUGCAUAGUUAAUACAAA | 0.000411 ± 0.018
30 | UCCUGGAUCAGCAUCCAUAGUAUUUAGUUA | 0.000271 ± 0.021
31 | UCCUCCUACAGCUUGCAUAGUAUUAGUUA | 0.000678 ± 0.0071
32 | UCCUCCUACAGCUUGCAUAGUAUUAAGAAA | 0.000467 ± 0.012
33 | UCCUGGAUGUGCUUGCAUAGUAUUUUCAAA | 0.000322 ± 0.023
34 | UCCUGGAUCAGCUACCAUAGUAUUUAGUAA | 0.000212 ± 0.032
35 | UCCUGCUACAGCUUGCAUUGUAUUUACAAA | 0.000437 ± 0.011

Row | Sequence | pre-steady-state target cleavage rate
36 | UCCUCCUACAGCUUGCAUAGUAUAUAGAAA | 0.000159 ± 0.032
37 | UCCUGGAUGAGCUUGGUAAGUAUUUAGUAA | 0.00123 ± 0.0084
38 | UCCUGGUACAGCUUGCUAUGUAUUUAGAAA | 0.000457 ± 0.011
39 | UCCUGGUACAGCUUGCAUACAAUUUACAAA | 0.000351 ± 0.021
40 | UCCUGGAUGAGGAUGCAUAGUAUUUACAAA | 0.000295 ± 0.022
41 | UCCUGGAACAGCUUGGAUAGUAUUUACAAA | 0.000265 ± 0.028
42 | UCCUGGAUGUCCUUGCAUAGAUAUUAGUAA | 0.000207 ± 0.022
43 | UCCUGGUACAGCUUGCAUAGUAUUUAGCUA | 0.000278 ± 0.047
44 | UCCUCCUACAGCUAGCAUAGUAUUUAGAAA | 0.000508 ± 0.012
45 | UCCUGCUACAGCUUGCAUACUAUUUAGAAA | 0.000271 ± 0.027
46 | UCCUGGAUGUGCUUGCAUAGUAUAUAGAAA | 0.000482 ± 0.016
47 | UCCUGGUACACGUUGCAUAGUAUUUAGAAA | 0.000424 ± 0.019
48 | UCCUGGAUGAGCUUGCAUAGUAUAAAGAAA | 0.000602 ± 0.015
49 | UCCUGGAACAGCUUGGUAAGUAUUUACAAA | 0.000384 ± 0.021
50 | UCCUGGAUGAGCUACCAUAGUAUUUAGAAA | 0.000313 ± 0.017
51 | UCCUGGAUGAGCUAGCAUAGUAUUUACAAA | 0.000141 ± 0.051
52 | UCCUGGAUGUCCUUGCAUAGUAUUUAGUCUA | 0.000312 ± 0.022
53 | UCCUGGAACAGCUUGCAUACAUUUUAGUAA | 0.000443 ± 0.014
54 | UCCUGGAUGUCGUUGCAAACUAUUUAGUUA | 0.000307 ± 0.016
